From doi:10.1101/2021.05.05.442785 (bioRxiv, 2021)
No constants are given. Whether binding was seen depends on the method and setting. Binding seen in cells or lysates may run through a third protein. These calls come from enrichment with a bait or labelling near it, and not all partners need be listed. Sequences can lack the tags named with a protein.

Target: T1, S-adenosylmethionine lyase (SAMase) of bacteriophage T3, C-terminal His-tagged (bacteriophage T3) (UniProt P07693)
T1 sequence: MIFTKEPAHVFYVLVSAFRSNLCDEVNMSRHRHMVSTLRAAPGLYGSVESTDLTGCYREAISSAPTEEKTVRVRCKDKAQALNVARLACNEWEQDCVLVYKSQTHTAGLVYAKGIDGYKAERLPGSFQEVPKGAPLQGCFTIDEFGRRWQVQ
Assay: affinity purification with mass spectrometry

B1: E. coli methionine S-adenosyltransferase (MAT), endogenous (enzyme, UniProt P0A817 1-384)
chain: MAKHLFTSESVSEGHPDKIADQISDAVLDAILEQDPKARVACETYVKTGMVLVGGEITTSAWVDIEEITRNTVREIGYVHSDMGFDANSCAVLSAIGKQSPDINQGVDRADPLEQGAGDQGLMFGYATNETDVLMPAPITYAHRLVQRQAEVRKNGTLPWLRPDAKSQVTFQYDDGKIVGIDAVVLSTQHSEEIDQKSLQEAVMEEIIKPILPAEWLTSATKFFINPTGRFVIGGPMGDCGLTGRKIIVDTYGGMARHGGGAFSGKDPSKVDRSAAYAARYVAKNIVAAGLADRCEIQVSYAIGVAEPTSIMVETFGTEKVPSEQLTLLVREFFDLRPYGLIQMLDLLHPIYKETAAYGHFGREHFPWEKTDKAQLLRDAAGLK
- binding: binds
